The list shows a part of the results.
System: T1, CTL2-GFP (C. trachomatis L2/434/Bu, GFP-expressing)
T1 construct: L2/434/Bu, GFP-expressing
Design: species or system HeLa; Intracellular C. trachomatis growth in HeLa cells, bulk GFP fluorescence relative to DMSO
Settings: bulk GFP, single well; 28.5 h, 10 µM; inhibitor

Compound | % of control remaining [%]
Cc1cc2ccccc2n1CC(=O)N1CCn2cnnc2C1 [CBK282209] | 105.096
O=[N+]([O-])c1ccc(N(CCO)CCO)c2nonc12 [CBK261447] | 100
Cc1noc(C)c1S(=O)(=O)Nc1c(C(=O)Nc2ccc(F)cc2)[nH]c2ccccc12 [CBK050099] | 88.3704
COC(=O)CN1CCCC[C@H]2CN(C(=O)C3CCC3)C[C@H]21 [CBK285496] | 108.981
CC(Nc1cccc2ccccc12)C(=O)N/N=C/c1c(O)ccc2ccccc12 (centres unmarked) [CBK262678] | 34.1138
COCCN1C(=O)c2ccc(C(=O)c3ccc4c(c3)C(=O)N(CCOC)C4=O)cc2C1=O [CBK268641] | 155.285
Cc1ccc(-c2n[nH]c(=O)o2)cc1Br [CBK288443] | 150.063
O=C(NCc1ccco1)c1cc(Br)cnc1N1CCOCC1 [CBK076268] | 121.174
OCCCc1[nH]nc(-c2ccc(Cl)cc2)c1Br [CBK006993] | 67.0223
COc1ccc(C(CNC(=O)C2C(C(=O)O)C2(C)C)N(C)C)cc1 (centres unmarked) [CBK286700] | 91.9474
Cc1ccc2c(c1)C(=O)NCC1(CCN(C(=O)C3CC3)CC1)O2 [CBK284835] | 104.699
O=C(Cc1ccc([N+](=O)[O-])cc1)Nc1cc(C(=O)O)cc(C(=O)O)c1 [CBK263345] | 131.866
Cn1c(=O)n(C)c2cc(CNC(=O)COCC3CCCCO3)ccc21 (centres unmarked) [CBK307061] | 129.687
COc1ccc(C)cc1S(=O)(=O)Nc1cc(Cl)ccc1C(=O)NCc1ccccc1 [CBK113954] | 97.411
Cc1cc(C)[n+](-c2ccccc2O)c(C)c1 [CBK005458G] | 106.088
Cc1ccccc1-c1cc(C(=O)N(C)C)c2cnn(C(C)C)c2n1 [CBK306245] | 110.472
CC1=NN(c2ccccc2)C(=O)/C1=C(/C)NNC(=O)c1ccccn1 [CBK261837] | 88.0097
COc1cc(NC(=O)c2ccc3c(c2)C(=O)N(Cc2ccco2)C3=O)c(C(=O)O)cc1OC [CBK267436] | 117.187
CC(=O)N(C)c1nc(-c2ccccc2C)ccc1C(=O)NC1CCCCC1 [CBK106333] | 118.855
CN(c1ncc(-c2ccccc2)cc1C(=O)NCc1ccco1)S(C)(=O)=O [CBK076506] | 192.157
Cc1onc(-c2ccccc2)c1CNC(=O)c1ccc(OC(F)(F)F)cc1 [CBK144080] | 116.381
Cc1ccc(CC2CCCN2CC(=O)NCc2ccccn2)cc1 (centres unmarked) [CBK304070] | 110.363
O=C(O)c1ccc(CNCc2ccc(-c3ccc(Cl)cc3)o2)cc1 [CBK269619C] | 109.681
Cc1nn(C)cc1-c1cncn1CC(C)N1CCCCC1 (centres unmarked) [CBK281781] | 137.104
CCCc1nc(NC(CC)c2nc(C)c(C)s2)c2cnn(C)c2n1 (centres unmarked) [CBK307261] | 133.954

Retrieved by structure from above, two records:
Compound | % of control remaining [%]
Cc1ccccc1-c1cc(C(=O)N(C)C)c2cnn(C(C)C)c2n1 [CBK306245] | 110.472
CN(c1ncc(-c2ccccc2)cc1C(=O)NCc1ccco1)S(C)(=O)=O [CBK076506] | 192.157

(next part)

Compound | % of control remaining [%]
COc1cccc(Nc2cc(-c3ccc(N4CCOCC4)cc3)ncn2)c1 [CBK090733] | 120.14
O=C(NCCN1CCCCC1)C1CC(=O)N(Cc2ccncc2)C1 (centres unmarked) [CBK306629] | 142.419
CCOc1cccc(OCC(=O)N2CCC(c3cc(C(=O)NC)c4ccccc4n3)C2)c1 (centres unmarked) [CBK285896] | 141.122
Oc1ccc(/N=N/c2cccc(Br)c2)cc1/C=N/c1ccc(-c2nc3ncccc3o2)cc1 [CBK262009] | 93.6053
CCCCCOc1ccc(-c2ccc(Cl)nn2)cc1 [CBK007044] | 133.884
CC(NCc1ccc(S(N)(=O)=O)cc1)=C1C(=O)c2ccccc2C1=O [CBK262692] | 100
CCCCOc1nccnc1-c1cnn(C)c1 [CBK107085] | 100
NC(=O)C1CCN(C(=O)CN(c2ccccc2)S(=O)(=O)c2ccccc2[N+](=O)[O-])CC1 [CBK265320] | 100
CC(C)(C)c1ccc(OCC(=O)Nc2ccc(S(=O)(=O)N3CCc4ccccc43)cc2)cc1 [CBK265352] | 127.533
COc1cc(C#N)ccc1OCc1ccccc1 [CBK002577] | 91.7488
CCn1cc(CN2C3CCC2CC(O)(c2cccc(F)c2)C3)c(C)n1 (centres unmarked) [CBK282755] | 133.403
FC(F)(F)c1[nH]c2ncccc2c1CN1CCSCC1 [CBK283257] | 121.609
O=C(COc1ccccc1)Nc1ccc2oc(-c3cccnc3)nc2c1 [CBK262959] | 133.134
COc1ccc2c(c1)c(C(=O)N1CCn3nc(CO)cc3C1)c(C)n2C [CBK306764] | 151.596
COc1cc(OC)nc(C(NC(=O)C2CCN(C(=O)c3ccccc3)CC2)c2ccccc2)n1 (centres unmarked) [CBK059650] | 144.813
Cc1ccc(OCCCC(=O)Nc2ccc(C(N)=O)cc2)c(C)c1 [CBK268032] | 124.331
O=C(N[C@H]1CCN2C(=O)[C@@H](Cc3ccccc3)NC(=O)[C@H]12)c1cnccn1 [CBK289231] | 126.407
COCC(=O)N1CCc2sccc2C1c1ccc(NC(=O)c2cccc(F)c2)cc1 (centres unmarked) [CBK286468] | 132.002
CN(C)C[C@H]1CC[C@]2(CC1)CN(C(=O)C1CC1)Cc1ccccc1O2 [CBK284920] | 122.914
CC(=O)NCCCCCC(=O)Nc1ccc(Cl)cn1 [CBK091341] | 118.073
NS(=O)(=O)c1ccc(NC(=S)NNC(=O)c2cc(Br)ccc2Cl)cc1 [CBK266970] | 122.667
O=C(c1ccc2c(c1)OCCO2)N1CCN(C(=O)c2ccco2)CC1 [CBK144480] | 110.366
c1cc(OCc2cccs2)cc(N2CCNCC2)c1 [CBK022557F] | 150.524
CC(C)C1C2CCCCC2=NN1C(=O)/C=C/C(=O)O (centres unmarked) [CBK286862] | 125.946
O=C(NCCc1ccccc1)c1ccccc1NS(=O)(=O)N1CCCC1 [CBK268407] | 109.646
